Measured values reported in paper PMC9740559, “Molecular and Pharmacological Characterization of β-Adrenergic-like Octopamine Receptors in the Endoparasitoid Cotesia chilonis (Hymenoptera: Braconidae)” (International Journal of Molecular Sciences, 2022).

What was measured:
CcOctβ2R = tested on: T1, CcOctβ2R; settings: read-out: CcOctβ2R / IC50; antagonist; non-saturating OA (30 nM); 100 μM IBMX; 25 °C
T1 construct: gene Octβ2R
Text: inhibition of OA-induced cAMP in stable CHO-K1 cells (cAMP immunoassay) on CcOctβ2R

CcOctβ3R = tested on: T2, CcOctβ3R; settings: read-out: CcOctβ3R / IC50; antagonist; non-saturating OA (300 nM); 100 μM IBMX; 25 °C
T2 construct: gene Octβ3R
Text: inhibition of OA-induced cAMP in stable CHO-K1 cells (cAMP immunoassay) on CcOctβ3R

CcOctβ1R = tested on: T3, CcOctβ1R; settings: read-out: CcOctβ1R / IC50; antagonist; non-saturating OA (100 nM); 100 μM IBMX; 25 °C
T3 construct: gene Octβ1R
Text: inhibition of OA-induced cAMP in stable CHO-K1 cells (cAMP immunoassay) on CcOctβ1R

Compound: CN1CC2c3ccccc3Oc3ccc(Cl)cc3C2C1 (stereo not drawn) [Asenapine]
- IC50 (CcOctβ2R): 0.0234 µM
- IC50 (CcOctβ3R): 0.0113 µM
- IC50 (CcOctβ1R): 0.17 µM
